PubChem BioAssay AID1259308 – NCATS, 2017

Purpose: 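Candidate targets for better recombinant protein yield in mammalian cells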 (primary screen)
Cells: human HEK293 embryonic kidney cells stably expressing firefly luciferase (HEK-CMV-Luc2-Hygro)
Knock-down reagent: single siRNA against human genes, 0.8 pmol siRNA per well
Duration: 72 h
Measurement: 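Luciferase light (ONE-Glo) measured on one replicate plate set and viability (CellTiter-Glo) on the other, scaled to a negative control siRNA, with robust z-scores and luciferase per cell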
Scale: total luciferase, z-score and total luciferase, % of control: higher = more reporter protein produced; luciferase per cell, z-score: higher = more reporter output per viable cell; viable cells, % of control: higher = more viable cells
Hit rule: 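An siRNA counts as active if its total luciferase robust z-score exceeds 3; genes with two or more such siRNAs out of three were retested with fresh siRNAs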
Calls: active = raised luciferase; inactive = no rise
The deposit covers about 59,000 reagents; this is a random part of them. About 1,510 of all reagents (2.6%) count as active. 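Calls use total luciferase alone and ignore viability, so some active siRNAs may act by altering cell number.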 Unmarked entries are inactive.

no.	gene	PubChem SID	total luciferase, z-score	total luciferase, % of control	luciferase per cell, z-score	viable cells, % of control
1	LOC648934 (citrate synthase, mitochondrial-like)	SID160770355	0.694	95.7	2.19	60.1
2	LOC648934 (citrate synthase, mitochondrial-like)	SID160770358	-2.07	40.8	-2.07	78.5
3	LOC648934 (citrate synthase, mitochondrial-like)	SID160770359	-2.01	41.9	-1.04	61.5
4	PRTN3 (proteinase 3)	SID160715129	-0.0663	80.6	-0.102	92.5
5	PRTN3 (proteinase 3)	SID160715130	-1.88	44.5	1.67	32
6	PRTN3 (proteinase 3)	SID160715131	3.56 (active)	153	2.33	92.5
7	IRX1 (iroquois homeobox 1)	SID160748787	1.93	120	0.847	108
8	IRX1 (iroquois homeobox 1)	SID160748788	-0.645	69.1	-0.774	94.6
9	IRX1 (iroquois homeobox 1)	SID160748789	0.327	88.4	-0.0944	101
10	CDC42SE1 (CDC42 small effector 1)	SID160745200	-0.699	68	-0.695	91.2
11	CDC42SE1 (CDC42 small effector 1)	SID160745201	2.72	136	2.53	78
12	CDC42SE1 (CDC42 small effector 1)	SID160745202	-0.167	78.6	-0.168	91.8
13	CCNF (cyclin F)	SID160737807	0.479	91.4	0.49	89.8
14	CCNF (cyclin F)	SID160737817	-1.89	44.4	-1.33	70.3
15	CCNF (cyclin F)	SID160737827	1.19	106	0.493	104
16	TTYH2 (tweety family member 2)	SID160735223	-1.22	57.5	-0.93	82.1
17	TTYH2 (tweety family member 2)	SID160754580	0.432	90.5	0.18	96.4
18	TTYH2 (tweety family member 2)	SID160754581	-0.228	77.3	1.47	58.7
19	DSCR9 (Down syndrome critical region 9)	SID160732829	-1.18	58.4	-1.57	98.7
20	DSCR9 (Down syndrome critical region 9)	SID160762544	-1.91	43.9	-1.56	74
21	DSCR9 (Down syndrome critical region 9)	SID160762545	-0.159	78.7	-0.414	98.1
22	MBD3L1 (methyl-CpG binding domain protein 3 like 1)	SID160753378	0.448	90.8	0.734	83.6
23	MBD3L1 (methyl-CpG binding domain protein 3 like 1)	SID160753379	-0.0588	80.7	-0.67	108
24	MBD3L1 (methyl-CpG binding domain protein 3 like 1)	SID160753380	-0.866	64.7	-1.1	96.6

2 of these entries, set out differently.
gene,PubChem SID,"total luciferase, z-score","total luciferase, % of control","luciferase per cell, z-score","viable cells, % of control"
TTYH2 (tweety family member 2),SID160735223,-1.22,57.5,-0.93,82.1
TTYH2 (tweety family member 2),SID160754580,0.432,90.5,0.18,96.4
